PMC8315805
These are yes or no findings as the source states them, for the method shown. Binding seen in cells or lysates may run through a third protein. Some results given as binding are weak or reduced against the parent protein; the word gives no strength. Where a sequence is shown, tags or fusion partners need not be part of it.

Molecular target: GFP-tagged TRIM25 (human (cDNA from HEK293T)), Q14258
Assay: co-IP
Details: remark: other sources report otherwise

B1: Flag-RIG-I, O95786 1-925 (protein)
chain: MTTEQRRSLQAFQDYIRKTLDPTYILSYMAPWFREEEVQYIQAEKNNKGPMEAATLFLKFLLELQEEGWFRGFLDALDHAGYSGLYEAIESWDFKKIEKLEEYRLLLKRLQPEFKTRIIPTDIISDLSECLINQECEEILQICSTKGMMAGAEKLVECLLRSDKENWPKTLKLALEKERNKFSELWIVEKGIKDVETEDLEDKMETSDIQIFYQEDPECQNLSENSCPPSEVSDTNLYSPFKPRNYQLELALPAMKGKNTIICAPTGCGKTFVSLLICEHHLKKFPQGQKGKVVFFANQIPVYEQQKSVFSKYFERHGYRVTGISGATAENVPVEQIVENNDIIILTPQILVNNLKKGTIPSLSIFTLMIFDECHNTSKQHPYNMIMFNYLDQKLGGSSGPLPQVIGLTASVGVGDAKNTDEALDYICKLCASLDASVIATVKHNLEELEQVVYKPQKFFRKVESRISDKFKYIIAQLMRDTESLAKRICKDLENLSQIQNREFGTQKYEQWIVTVQKACMVFQMPDKDEESRICKALFLYTSHLRKYNDALIISEHARMKDALDYLKDFFSNVRAAGFDEIEQDLTQRFEEKLQELESVSRDPSNENPKLEDLCFILQEEYHLNPETITILFVKTRALVDALKNWIEGNPKLSFLKPGILTGRGKTNQNTGMTLPAQKCILDAFKASGDHNILIATSVADEGIDIAQCNLVILYEYVGNVIKMIQTRGRGRARGSKCFLLTSNAGVIEKEQINMYKEKMMNDSILRLQTWDEAVFREKILHIQTHEKFIRDSQEKPKPVPDKENKKLLCRKCKALACYTADVRVIEECHYTVLGDAFKECFVSRPHPKPKQFSSFEKRAKIFCARQNCSHDWGIHVKYKTFEIPVIKIESFVVEDIATGVQTLYSKWKDFHFEKIPFDPAEMSK
binding: binds
